Measurements published in the supplement of paper PMC12067093, “Discovery and optimisation of a covalent ligand for TRIM25 and its application to targeted protein ubiquitination” (Chemical Science, 2025).
Some of the results follow.

Protein sequences, listed by entry. Tags and fused reporters are not part of them. Lines headed by an entry give the natural chain unless they say otherwise; changes in a name come on top.
UniProt Q9H497: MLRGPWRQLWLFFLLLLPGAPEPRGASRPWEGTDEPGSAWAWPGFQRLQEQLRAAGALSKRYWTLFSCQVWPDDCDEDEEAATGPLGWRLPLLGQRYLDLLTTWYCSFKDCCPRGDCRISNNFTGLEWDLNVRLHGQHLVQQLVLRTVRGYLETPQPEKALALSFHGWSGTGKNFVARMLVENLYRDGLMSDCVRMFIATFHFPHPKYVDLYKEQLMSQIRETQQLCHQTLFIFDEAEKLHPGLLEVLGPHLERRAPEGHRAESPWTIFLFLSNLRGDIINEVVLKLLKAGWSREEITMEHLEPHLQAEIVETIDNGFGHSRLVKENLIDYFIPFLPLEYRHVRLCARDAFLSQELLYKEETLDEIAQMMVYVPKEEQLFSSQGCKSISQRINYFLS
UniProt Q92547, whole entry, looked up: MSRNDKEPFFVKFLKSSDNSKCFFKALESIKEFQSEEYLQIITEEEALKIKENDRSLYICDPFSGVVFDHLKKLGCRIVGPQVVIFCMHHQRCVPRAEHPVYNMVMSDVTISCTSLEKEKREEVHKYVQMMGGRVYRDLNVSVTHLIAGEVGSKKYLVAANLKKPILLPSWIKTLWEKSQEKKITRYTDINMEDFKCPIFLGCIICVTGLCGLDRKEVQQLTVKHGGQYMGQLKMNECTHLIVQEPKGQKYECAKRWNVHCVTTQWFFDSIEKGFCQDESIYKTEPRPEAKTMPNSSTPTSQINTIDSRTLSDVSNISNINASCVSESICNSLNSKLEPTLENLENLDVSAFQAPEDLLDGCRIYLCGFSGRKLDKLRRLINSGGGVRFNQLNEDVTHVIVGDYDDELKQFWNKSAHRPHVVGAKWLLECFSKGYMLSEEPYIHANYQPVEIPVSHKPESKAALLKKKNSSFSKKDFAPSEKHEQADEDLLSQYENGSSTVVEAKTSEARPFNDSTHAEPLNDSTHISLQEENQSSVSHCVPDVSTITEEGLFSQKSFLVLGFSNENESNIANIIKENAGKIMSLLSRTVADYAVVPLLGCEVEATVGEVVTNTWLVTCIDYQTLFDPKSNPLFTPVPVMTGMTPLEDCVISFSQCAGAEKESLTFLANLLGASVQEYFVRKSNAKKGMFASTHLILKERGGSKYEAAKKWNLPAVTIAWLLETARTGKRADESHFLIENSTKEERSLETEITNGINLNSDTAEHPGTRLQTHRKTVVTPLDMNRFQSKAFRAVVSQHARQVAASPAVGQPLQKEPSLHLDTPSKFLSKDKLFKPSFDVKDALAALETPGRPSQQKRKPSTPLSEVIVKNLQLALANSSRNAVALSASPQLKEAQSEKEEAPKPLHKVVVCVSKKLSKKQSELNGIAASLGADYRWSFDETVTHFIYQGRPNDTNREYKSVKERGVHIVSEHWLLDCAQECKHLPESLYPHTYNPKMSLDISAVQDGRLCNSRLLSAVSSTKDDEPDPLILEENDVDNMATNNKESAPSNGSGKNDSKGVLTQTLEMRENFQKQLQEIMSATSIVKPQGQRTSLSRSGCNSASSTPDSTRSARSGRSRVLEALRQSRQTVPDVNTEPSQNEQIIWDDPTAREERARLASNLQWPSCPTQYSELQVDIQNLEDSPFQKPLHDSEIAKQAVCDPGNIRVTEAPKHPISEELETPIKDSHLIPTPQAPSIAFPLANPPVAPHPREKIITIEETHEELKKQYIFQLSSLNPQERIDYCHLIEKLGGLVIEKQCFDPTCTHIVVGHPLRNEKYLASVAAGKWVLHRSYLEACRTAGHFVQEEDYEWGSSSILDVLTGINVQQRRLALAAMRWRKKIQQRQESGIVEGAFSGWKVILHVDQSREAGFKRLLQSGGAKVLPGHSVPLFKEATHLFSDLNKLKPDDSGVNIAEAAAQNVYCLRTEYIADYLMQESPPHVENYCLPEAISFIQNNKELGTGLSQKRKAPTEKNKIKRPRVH
UniProt Q9NV96: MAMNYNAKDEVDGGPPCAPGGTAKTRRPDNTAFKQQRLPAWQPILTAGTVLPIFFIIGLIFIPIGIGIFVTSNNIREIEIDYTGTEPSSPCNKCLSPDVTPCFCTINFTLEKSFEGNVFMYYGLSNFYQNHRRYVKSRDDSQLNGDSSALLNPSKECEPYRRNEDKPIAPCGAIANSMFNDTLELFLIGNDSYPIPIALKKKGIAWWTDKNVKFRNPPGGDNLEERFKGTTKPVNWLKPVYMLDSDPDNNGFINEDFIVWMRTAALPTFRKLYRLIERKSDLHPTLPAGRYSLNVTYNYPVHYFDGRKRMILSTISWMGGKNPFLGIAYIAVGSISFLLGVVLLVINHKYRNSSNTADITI
UniProt P11387: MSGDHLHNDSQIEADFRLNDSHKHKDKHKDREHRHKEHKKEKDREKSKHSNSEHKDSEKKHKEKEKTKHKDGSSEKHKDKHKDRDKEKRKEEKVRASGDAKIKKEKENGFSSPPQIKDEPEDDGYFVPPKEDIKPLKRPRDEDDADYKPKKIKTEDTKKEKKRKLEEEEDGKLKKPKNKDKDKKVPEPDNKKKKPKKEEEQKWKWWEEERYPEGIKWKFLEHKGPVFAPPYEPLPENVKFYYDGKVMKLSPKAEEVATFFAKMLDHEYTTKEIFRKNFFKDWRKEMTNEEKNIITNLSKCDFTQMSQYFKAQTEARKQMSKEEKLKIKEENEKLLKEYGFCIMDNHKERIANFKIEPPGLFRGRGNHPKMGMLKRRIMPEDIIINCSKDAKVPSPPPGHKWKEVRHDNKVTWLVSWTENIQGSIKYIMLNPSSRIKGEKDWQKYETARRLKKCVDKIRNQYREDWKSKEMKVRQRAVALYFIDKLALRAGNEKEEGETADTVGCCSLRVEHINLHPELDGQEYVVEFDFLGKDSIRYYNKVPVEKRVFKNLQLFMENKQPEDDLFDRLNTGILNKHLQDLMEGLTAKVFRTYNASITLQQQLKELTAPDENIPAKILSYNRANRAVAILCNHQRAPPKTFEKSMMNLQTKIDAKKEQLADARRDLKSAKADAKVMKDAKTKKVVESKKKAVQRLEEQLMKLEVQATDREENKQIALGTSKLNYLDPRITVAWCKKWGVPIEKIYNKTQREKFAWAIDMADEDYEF
UniProt Q12888: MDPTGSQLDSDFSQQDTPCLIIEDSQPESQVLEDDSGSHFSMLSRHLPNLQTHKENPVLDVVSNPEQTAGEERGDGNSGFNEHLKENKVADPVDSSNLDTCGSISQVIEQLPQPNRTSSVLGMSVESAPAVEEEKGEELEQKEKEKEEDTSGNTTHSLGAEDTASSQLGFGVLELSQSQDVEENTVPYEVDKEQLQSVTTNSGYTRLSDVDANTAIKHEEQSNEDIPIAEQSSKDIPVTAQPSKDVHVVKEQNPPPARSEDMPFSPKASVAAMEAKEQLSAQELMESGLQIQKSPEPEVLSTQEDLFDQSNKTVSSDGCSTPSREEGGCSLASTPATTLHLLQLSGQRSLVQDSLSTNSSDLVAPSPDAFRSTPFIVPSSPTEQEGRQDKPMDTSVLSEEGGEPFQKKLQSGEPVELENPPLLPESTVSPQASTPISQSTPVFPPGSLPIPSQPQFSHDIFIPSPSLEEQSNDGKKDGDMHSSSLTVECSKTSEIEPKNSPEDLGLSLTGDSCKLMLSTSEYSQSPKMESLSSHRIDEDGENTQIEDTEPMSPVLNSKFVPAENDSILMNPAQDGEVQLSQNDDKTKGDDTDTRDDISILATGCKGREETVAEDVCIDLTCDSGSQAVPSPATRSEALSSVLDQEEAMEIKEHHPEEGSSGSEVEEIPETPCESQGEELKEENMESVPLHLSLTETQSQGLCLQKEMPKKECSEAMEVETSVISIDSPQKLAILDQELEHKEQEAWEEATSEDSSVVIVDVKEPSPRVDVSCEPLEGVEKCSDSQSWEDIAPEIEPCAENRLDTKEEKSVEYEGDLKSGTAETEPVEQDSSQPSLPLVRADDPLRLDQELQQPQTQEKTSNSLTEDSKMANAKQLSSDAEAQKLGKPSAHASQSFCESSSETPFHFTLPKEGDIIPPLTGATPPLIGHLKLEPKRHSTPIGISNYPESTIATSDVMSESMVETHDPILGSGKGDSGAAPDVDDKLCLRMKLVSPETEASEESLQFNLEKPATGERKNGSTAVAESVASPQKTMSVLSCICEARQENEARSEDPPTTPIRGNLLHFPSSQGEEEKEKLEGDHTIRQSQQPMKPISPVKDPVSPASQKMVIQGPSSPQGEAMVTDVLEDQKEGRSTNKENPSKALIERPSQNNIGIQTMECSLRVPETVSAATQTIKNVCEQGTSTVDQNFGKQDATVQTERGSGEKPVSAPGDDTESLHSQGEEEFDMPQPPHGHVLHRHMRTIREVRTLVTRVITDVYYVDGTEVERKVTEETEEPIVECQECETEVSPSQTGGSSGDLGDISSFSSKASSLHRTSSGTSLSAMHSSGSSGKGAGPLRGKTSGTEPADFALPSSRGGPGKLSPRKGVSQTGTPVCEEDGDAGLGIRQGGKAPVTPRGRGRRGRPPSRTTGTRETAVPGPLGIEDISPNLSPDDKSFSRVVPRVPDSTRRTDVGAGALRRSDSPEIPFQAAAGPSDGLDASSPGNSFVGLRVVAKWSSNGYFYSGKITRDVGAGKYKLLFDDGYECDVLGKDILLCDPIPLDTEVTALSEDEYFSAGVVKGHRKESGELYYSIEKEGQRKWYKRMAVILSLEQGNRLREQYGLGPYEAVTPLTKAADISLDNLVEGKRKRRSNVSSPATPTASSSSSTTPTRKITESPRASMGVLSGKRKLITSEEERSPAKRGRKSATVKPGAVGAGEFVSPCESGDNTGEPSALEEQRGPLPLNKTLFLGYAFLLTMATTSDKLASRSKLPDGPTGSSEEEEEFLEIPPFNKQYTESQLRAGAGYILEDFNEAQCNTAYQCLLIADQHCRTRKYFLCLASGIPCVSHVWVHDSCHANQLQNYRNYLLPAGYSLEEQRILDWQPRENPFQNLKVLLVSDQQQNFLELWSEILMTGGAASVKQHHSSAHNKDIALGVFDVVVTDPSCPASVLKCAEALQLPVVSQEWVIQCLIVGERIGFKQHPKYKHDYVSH
UniProt Q9Y5L0: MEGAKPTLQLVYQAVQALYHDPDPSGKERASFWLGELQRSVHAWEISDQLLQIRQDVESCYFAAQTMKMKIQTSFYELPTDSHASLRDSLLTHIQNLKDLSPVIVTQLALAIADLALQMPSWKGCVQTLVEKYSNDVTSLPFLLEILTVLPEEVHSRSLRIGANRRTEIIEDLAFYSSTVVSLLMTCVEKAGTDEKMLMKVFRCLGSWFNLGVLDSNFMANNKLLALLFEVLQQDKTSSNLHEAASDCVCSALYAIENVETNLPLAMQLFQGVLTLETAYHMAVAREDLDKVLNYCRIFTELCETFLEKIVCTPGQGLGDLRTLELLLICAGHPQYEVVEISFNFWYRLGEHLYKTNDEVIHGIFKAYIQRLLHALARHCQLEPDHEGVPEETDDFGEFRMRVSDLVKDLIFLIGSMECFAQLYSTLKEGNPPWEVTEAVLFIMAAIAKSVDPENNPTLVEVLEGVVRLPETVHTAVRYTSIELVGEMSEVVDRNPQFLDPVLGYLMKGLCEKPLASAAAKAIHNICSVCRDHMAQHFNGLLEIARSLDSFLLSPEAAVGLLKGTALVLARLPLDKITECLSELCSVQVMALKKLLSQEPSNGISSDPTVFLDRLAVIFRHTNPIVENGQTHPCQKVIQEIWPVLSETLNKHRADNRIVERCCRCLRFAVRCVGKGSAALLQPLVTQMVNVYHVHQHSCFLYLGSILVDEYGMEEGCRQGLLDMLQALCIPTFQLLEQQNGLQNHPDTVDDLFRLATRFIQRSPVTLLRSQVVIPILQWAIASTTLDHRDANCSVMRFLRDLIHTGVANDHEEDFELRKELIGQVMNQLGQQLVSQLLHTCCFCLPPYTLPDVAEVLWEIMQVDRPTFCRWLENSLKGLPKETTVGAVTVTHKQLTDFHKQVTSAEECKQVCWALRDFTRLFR
UniProt O94842: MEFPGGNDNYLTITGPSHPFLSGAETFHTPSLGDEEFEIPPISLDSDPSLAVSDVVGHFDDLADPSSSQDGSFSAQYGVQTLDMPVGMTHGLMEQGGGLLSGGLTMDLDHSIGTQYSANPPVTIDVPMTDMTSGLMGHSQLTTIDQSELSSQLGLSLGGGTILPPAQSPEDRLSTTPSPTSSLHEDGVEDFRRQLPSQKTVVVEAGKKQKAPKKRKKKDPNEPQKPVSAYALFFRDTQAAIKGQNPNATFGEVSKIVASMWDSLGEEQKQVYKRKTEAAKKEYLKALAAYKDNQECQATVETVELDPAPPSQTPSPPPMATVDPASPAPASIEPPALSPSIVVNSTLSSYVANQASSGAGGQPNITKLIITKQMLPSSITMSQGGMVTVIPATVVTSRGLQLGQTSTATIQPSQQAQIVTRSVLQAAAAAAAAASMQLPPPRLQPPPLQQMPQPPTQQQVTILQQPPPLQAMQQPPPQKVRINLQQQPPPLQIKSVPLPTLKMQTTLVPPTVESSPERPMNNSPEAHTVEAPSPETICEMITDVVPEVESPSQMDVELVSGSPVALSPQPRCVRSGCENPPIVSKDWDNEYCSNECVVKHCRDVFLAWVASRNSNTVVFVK

Compound: CC1Cc2ccccc2N1C(=O)C1CCCN(C1)C(=O)CCl (mixture of isomers) [TRIM25 ligand 11 (diastereomer mixture)]
Test: probe-labelled cysteine peptide fold change vs DMSO (competition) (log2 fold change); higher = less target engagement (more negative = stronger competition)
Conditions: THP-1, incubation time: 4 h
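Also: competitive chemoproteomic profiling in live THP-1 cells with an iodoacetamide desthiobiotin (IA-DTB) probe, comparing probe-labelled peptide intensities in compound-treated cells against DMSO-treated controls.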

Row | Target | probe-labelled cysteine peptide fold change (10 µM) | probe-labelled cysteine peptide fold change (50 µM)
1 | TNPO1_Q92973_103_SECLNNIGDSSPLIR (UniProt Q92973) | 0.0608 | -0.0391
2 | TMEM192_Q8IY95_266_LLALTSSDLGCQPSRT (UniProt Q8IY95) | -0.0314 | -0.0966
3 | TLN2_Q9Y4G6_1663_ECDYSIDGINR (UniProt Q9Y4G6) | 0.244 | -0.038
4 | TOP2A_P11388_300_WEVCLTMSEK (UniProt P11388) | -0.00381 | 0.176
5 | TOR3A_Q9H497_385_EEQLFSSQGCK (UniProt Q9H497) | 0.032 | 0.371
6 | TNS3_Q68CZ2_1381_HYPVNSVIFCALDPQDRK (UniProt Q68CZ2) | -0.0374 | 0.0639
7 | TONSL_Q96HA7_66_ERADDPLGCAVAHR (UniProt Q96HA7) | 0.0137 | 0.199
8 | TMEM33_P57088_204_RNPYCR (UniProt P57088) | 0.123 | 0.149
9 | TOP2B_Q02880_271_RAYDLAGSCR (UniProt Q02880) | -0.0934 | 0.0553
10 | TOMM70_O94826_136_YEQAIQCYTEAISLCPTEK (UniProt O94826) | 0.145 | 0.205
11 | TOP2B_Q02880_387_NHIWVFINCLIENPTFDSQTK (UniProt Q02880) | -0.0715 | 0.0129
12 | TOMM70_O94826_144_YEQAIQCYTEAISLCPTEK (UniProt O94826) | 0.12 | -0.175
13 | TOPBP1_Q92547_1284_IDYCHLIEK (UniProt Q92547) | 0.0461 | 0.113
14 | TMEM30A_Q9NV96_91_EIEIDYTGTEPSSPCNK (UniProt Q9NV96) | 0.124 | 0.00329
15 | TMEM33_P57088_232_LCLQSIAFISR (UniProt P57088) | -0.128 | 0.373
16 | TOMM70_O94826_588_SEMEMAHLYSLCDAAHAQTEVAK (UniProt O94826) | -0.0764 | -0.0114
17 | TOPBP1_Q92547_911_VVVCVSK (UniProt Q92547) | -0.129 | -0.0141
18 | TOP1_P11387_300_CDFTQMSQYFK (UniProt P11387) | -0.0527 | -0.0936
19 | TOP1_P11387_504+505_EEGETADTVGCCSLR (UniProt P11387) | 0.0887 | 0.122
20 | TMEM106B_Q9NUM4_61_DSVTCPTCQGTGR (UniProt Q9NUM4) | -0.212 | -0.256
21 | TMF1_P82094_301_SSLHLMQTSFQLLSASACPEYNR (UniProt P82094) | -0.319 | -0.525

Row | Target | probe-labelled cysteine peptide fold change (10 µM) | probe-labelled cysteine peptide fold change (50 µM)
22 | TP53BP1_Q12888_1926_DIALGVFDVVVTDPSCPASVLK (UniProt Q12888) | -0.0789 | -0.145
23 | TMLHE_Q9NVH6_103_SLDTASVDLCIKPK (UniProt Q9NVH6) | -0.0564 | -0.192
24 | TNKS1BP1_Q9C0C2_1373_EHGVGGVSQCPEPGLR (UniProt Q9C0C2) | 0.0273 | -0.165
25 | TLN1_Q9Y490_750_AVEGCVSASQAATEDGQLLR (UniProt Q9Y490) | 0.189 | 0.331
26 | TLN1_Q9Y490_1927_HRVQELGHGCAALVTK (UniProt Q9Y490) | -0.112 | -0.165
27 | TLN1_Q9Y490_1661_APGQLECETAIAALNSCLR (UniProt Q9Y490) | 0.0449 | -0.0898
28 | TOR3A_Q9H497_193_DGLMSDCVR (UniProt Q9H497) | -0.00626 | 0.187
29 | TOP1_P11387_630_AVAILCNHQR (UniProt P11387) | -0.00984 | -0.0238
30 | TMEM260_Q9NX78_647_NYAIACER (UniProt Q9NX78) | -0.0872 | 0.0162
31 | TLN1_Q9Y490_1927_VQELGHGCAALVTK (UniProt Q9Y490) | 0.12 | 0.0376
32 | TOP3B_O95985_126_EGENICFEVLDAVLPVMNK (UniProt O95985) | 0.0014 | 0.0284
33 | TOR2A_Q5JU69_54_CTLGAFCECDFRPDLPGLECDLAQHLAGQHLAK (UniProt Q5JU69) | 0.174 | 0.343
34 | TNFAIP2_Q03169_356_LDGHCHSELAIDIIQITSQAQAK (UniProt Q03169) | 0.0507 | -0.118
35 | TONSL_Q96HA7_1345_RLCAEDRDALR (UniProt Q96HA7) | -0.0462 | -0.157
36 | TLN1_Q9Y490_1661+1671_APGQLECETAIAALNSCLR (UniProt Q9Y490) | -0.336 | -0.266
37 | TM2D3_Q9BRN9_166_DHVHCLGNR (UniProt Q9BRN9) | -0.109 | -0.163
38 | TOP1_P11387_386_IMPEDIIINCSK (UniProt P11387) | -0.0421 | -0.114
39 | TMUB2_Q71RG4_236+240_SLNITDNCVIHCHR (UniProt Q71RG4) | -0.135 | 0.171
40 | TLN2_Q9Y4G6_1047_AHEACGPMEIDSALNTVQTLK (UniProt Q9Y4G6) | -0.0171 | 0.0238
41 | TOLLIP_Q9H0E2_106_VIHCTVPPGVDSFYLEIFDER (UniProt Q9H0E2) | -0.0586 | 0.265
42 | TMEM192_Q8IY95_266_LLALTSSDLGCQPSR (UniProt Q8IY95) | -0.0897 | -0.0946

Row | Target | probe-labelled cysteine peptide fold change (10 µM) | probe-labelled cysteine peptide fold change (50 µM)
43 | TLN1_Q9Y490_243_ACEFAGFQCQIQFGPHNEQK (UniProt Q9Y490) | 0.073 | 0.0484
44 | TLR2_O60603_585_LSVSECHR (UniProt O60603) | 0.0952 | 0.0385
45 | TOP2A_P11388_455_NSTECTLILTEGDSAK (UniProt P11388) | -0.0545 | -0.0537
46 | TOP2A_P11388_1145_EKKDELCR (UniProt P11388) | -0.251 | -0.292
47 | TNPO3_Q9Y5L0_204_CLGSWFNLGVLDSNFMANNK (UniProt Q9Y5L0) | -0.288 | -0.153
48 | TOP2B_Q02880_321_WDVCLTLSEK (UniProt Q02880) | 0.192 | 0.137
49 | TLN1_Q9Y490_1661_DKAPGQLECETAIAALNSCLR (UniProt Q9Y490) | 0.039 | -0.111
50 | TOR4A_Q9NXH8_230_HHCPEAR (UniProt Q9NXH8) | 0.05 | -0.009
51 | TMEM30A_Q9NV96_157_ECEPYR (UniProt Q9NV96) | 0.0677 | 0.13
52 | TMEM94_Q12767_674_LSCVTK (UniProt Q12767) | -0.0381 | -0.15
53 | TNPO1_Q92973_142+153_LCSLLDSEDYNTCEGAFGALQK (UniProt Q92973) | -0.174 | -0.167
54 | TNPO3_Q9Y5L0_580_ITECLSELCSVQVMALKK (UniProt Q9Y5L0) | -0.0701 | -0.0556
55 | TOR1AIP1_Q5JTV8_424_CLSEQIADAYSSFR (UniProt Q5JTV8) | 0.0577 | 0.264
56 | TMEM106B_Q9NUM4_61+64_DSVTCPTCQGTGR (UniProt Q9NUM4) | -0.122 | -0.005
57 | TOX4_O94842_596_DWDNEYCSNECVVK (UniProt O94842) | -0.0519 | -0.0723
58 | TOR1A_O14656_50_LYCLFAECCGQK (UniProt O14656) | 0.0352 | 0.154
59 | TM9SF1_O15321_67_VGPYHNPQETYHYYQLPVCCPEK (UniProt O15321) | -0.0619 | 0.0845
60 | TNRC18_O15417_475_ELLKPEADPRPCER (UniProt O15417) | -0.148 | -0.0794
61 | TMEM33_P57088_224_IVVEHIIMKPACPLFVR (UniProt P57088) | -0.18 | 0.0095
62 | TONSL_Q96HA7_314_LQQQLEEAEGRDPQGAMVICEQLGDLFSK (UniProt Q96HA7) | 0.0453 | 0.0947
63 | TOMM70_O94826_502_CIDLEPDNATTYVHK (UniProt O94826) | 0.000578 | 0.0185

Row | Target | probe-labelled cysteine peptide fold change (10 µM) | probe-labelled cysteine peptide fold change (50 µM)
64 | TNS3_Q68CZ2_1381_RHYPVNSVIFCALDPQDRK (UniProt Q68CZ2) | -0.0671 | 0.174
65 | TONSL_Q96HA7_1167_LQACGFGPSFFLSHQTALGSAFQDAEHLK (UniProt Q96HA7) | 0.0193 | -0.000688
66 | TOMM34_Q15785_74_DCTSALALVPFSIK (UniProt Q15785) | -0.0714 | -0.0676
67 | TOX4_O94842_577_SGCENPPIVSK (UniProt O94842) | 0.096 | -0.172
68 | TLN1_Q9Y490_2408_MVAAATNNLCEAANAAVQGHASQEK (UniProt Q9Y490) | 0.148 | -0.193
69 | TMED4_Q7Z7H5_41_RCFIEEIPDETMVIGNYR (UniProt Q7Z7H5) | -0.113 | 0.12
70 | TMCO4_Q5TGY1_423_DCQGIIEDVILLGAPVEGEAK (UniProt Q5TGY1) | -0.359 | -0.457
71 | TNFAIP2_Q03169_429_ANVIANINNCLSFR (UniProt Q03169) | 0.0995 | 0.132
72 | TNS3_Q68CZ2_615_CPADNPGLVQAQPR (UniProt Q68CZ2) | 0.0127 | -0.206
73 | TM9SF3_Q9HD45_66_YFSLPFCVGSK (UniProt Q9HD45) | 2.09e-05 | -0.143
74 | TMEM62_Q0P6H9_325_SLLYSCGEHEPLER (UniProt Q0P6H9) | 0.0278 | -0.1
75 | TMEM214_Q6NUQ4_392_ELLSSLTECLTVDPLSASVWR (UniProt Q6NUQ4) | -0.0687 | -0.168
76 | TMED3_Q9Y3Q3_40_QCFHEEVEQGVK (UniProt Q9Y3Q3) | 0.00292 | 0.00481
77 | TLN1_Q9Y490_732_VVAPTISSPVCQEQLVEAGR (UniProt Q9Y490) | 0.278 | 0.0981
78 | TP53BP1_Q12888_1038+1040_TMSVLSCICEAR (UniProt Q12888) | 0.00587 | -0.446
79 | TMED8_Q6PL24_161_VSPPLMAPPCIWTFAK (UniProt Q6PL24) | -0.0272 | -0.159
80 | TOP2A_P11388_1008_LQTSLTCNSMVLFDHVGCLK (UniProt P11388) | 0.0519 | 0.105
81 | TLN1_Q9Y490_286_NCGQMSEIEAK (UniProt Q9Y490) | -0.114 | -0.122
82 | TLR6_Q9Y2C9_672_EDIQICLHER (UniProt Q9Y2C9) | -0.000798 | 0.109
